# Results published in patent publication US20080299589A1, “Methods and Materials for Examining the P13k/Akt Pathway in Gliomas and Prostate Cancers” (The Regents of the University of California, priority 2003, published 2008).
# “Also recorded” adds a separate entry of the source. For at least one compound, name, drawing or mass did not settle the structure.
# Key:
# LNCaP cells [1] = experiment: Immunostaining of formalin fixed, paraffin embedded LNCaP cell pellets with phospho-specific antibodies after inhibitor treatment; format: cell-based; conditions: LY294002 30 μM, 18 hours, vs vehicle
# Description: Cells (LNCaP, DU 145, HT 129) were grown in culture (DMEM supplemented with 10% FBS, L-Glutamine, Penicillin and Streptomycin) and exposed to vehicle, the PI3K inhibitor LY294002 (30 μM), the mTOR inhibitor, CCI-779 (20 nM) for 18 hours or the MEK inhibitor, UO126 (20 μM) combined with 100 ng/ml of EGF for 20 minutes. Cell pellets were prepared, formalin fixed and embedded in paraffin, then cut for immunohistochemical staining with phospho-AKT, -S6, -FKHR and -ERK antibodies. We performed antigen retrieval with a 10 mM sodium citrate buffer (pH 6.0) for 30 minutes in a pressure cooker. Peroxidase activity was quenched with 3% hydrogen peroxide in water. Sections were stained overnight at 4° C. with monoclonal antibodies to PTEN at 1:300 (clone 6H2.1; Cascade Bioscience, Winchester, Mass. This antibody recognizes a 99 amino acid epitope at the C-terminus of PTEN) and polyclonal phosphorylation-specific antibodies to p-AKT (Set 473), p-FKHR which recognizes phosphorylated forms of the forkhead family of transcription factors FKHR (FOXO 1), FKHRL1 (FOXO 3a) and AFX (FOXO 4), p-S6 Ribosomal protein (Set 235/236), p-ERK (Thr-202/Tyr-204) at 1:100 (Cell Signaling Technology, Beverly, Mass.). This was followed by application of biotinylated secondary antibodies (Vector) at 1:1000 dilution for 30 minutes and Avidin-biotin complex (Elite ABC; Vector). Negative control slides received normal mouse serum (DAKO) as the primary antibody. Diaminobenzidine tetrahydrochloride (DAB) was used as the enzyme substrate to visualize specific antibody localization for PTEN and p-AKT; Vector NovaRed (Vector) for p-FKHR, p-S6 and p-ERK. Slides were counterstained with Harris hematoxylin. For immunofluorescence assays, post fixation in paraformaldehyde, the cells were probed with Total AKT (1:50) and p-AKT (1:250); the secondary antibodies Alexa Flour anti-rabbit and anti-mouse (1:1000) [Molecular Probes, Eugene, Oreg.]. Following incubation, images were captured on a Nikon fluorescence microscope and then overlaid using Adobe Photoshop software.
# To validate the specificity of the phospho-specific antibodies, we used several confirmatory assays, i.e. preincubation with specific antigen peptides, immunofluorescence and treatment with pharmacological inhibitors of the pathway. We first examined the specificity of the antibodies when preincubated with a specific antigen peptide. Serial sections of a formalin fixed, paraffin embedded breast tumor were stained with p-AKT, p-S6, p-FKHR and p-ERK singly and then in combination with a specific antigen peptide. The phospho-specific staining was blocked when preincubated with its antigen peptide, confirming its specificity (FIG. 5B). Next, we examined the relationship between Total AKT and p-AKT by immunofluorescence. […]
# LNCaP cells [2] = experiment: Immunofluorescent detection of total AKT and p-AKT Ser473 in LNCaP cells; format: cell-based; conditions: 30 μM LY294002 vs untreated
# [3] = test system: S6 phosphorylation in glioblastoma; experiment: S6 phosphorylation in tumors of glioblastoma patients on a rapamycin clinical trial (IHC, western blotting); format: in vivo, human; conditions: glioblastoma patients treated with rapamycin for 5 days prior to surgical resection; majority of patients
# glioblastoma = experiment: Ki-67 tumor proliferation in glioblastoma patients treated with rapamycin; format: in vivo, human; conditions: correlated with rapamycin-mediated inhibition of S6 phosphorylation
Structure (SMILES),staining intensity of p-AKT (LNCaP cells [1]),staining intensity of p-ERK (LNCaP cells [1]),staining intensity of p-FKHR (LNCaP cells [1]),staining intensity of p-S6 (LNCaP cells [1]),"expression of total AKT, immunofluorescence (LNCaP cells [2])","phosphorylated AKT (Ser473) staining intensity, immunofluorescence (LNCaP cells [2])",S6 phosphorylation in the tumor relative to the initial biopsy [3],tumor cell proliferation (Ki-67) (glioblastoma)
O=c1cc(N2CCOCC2)oc2c(-c3ccccc3)cccc12 [LY294002],successfully blocked the activation; also recorded: decreased staining intensity,remained unchanged,completely abolished; also recorded: decreased staining intensity,successfully blocked the activation; also recorded: decreased staining intensity,unchanged expression,decrease in the signal intensity; also recorded: decreased intensity,–,–
CO[C@H]1C[C@@H]2CC[C@@H](C)[C@@](O)(O2)C(=O)C(=O)N2CCCC[C@H]2C(=O)O[C@H]([C@H](C)C[C@@H]2CC[C@@H](O)[C@H](OC)C2)CC(=O)[C@H](C)/C=C(\C)[C@@H](O)[C@@H](OC)C(=O)[C@H](C)C[C@H](C)/C=C/C=C/C=C/1C [rapamycin],–,–,–,–,–,–,substantial reduction,diminished tumor cell proliferation
